Test results reported in paper PMC3629710.
No constants are given. Whether binding was seen depends on the method and setting. Binding seen in cells or lysates may run through a third protein. Some binding calls cover weakened binding; strength is not graded here. One block for each substance: values may come before it.

The chains behind the UniProt entries cited, without tags or fusion partners. Where a name states a change or a piece, a line headed by the entry shows the natural chain unless it says otherwise. Residues count along the entry.
UniProt Q16539: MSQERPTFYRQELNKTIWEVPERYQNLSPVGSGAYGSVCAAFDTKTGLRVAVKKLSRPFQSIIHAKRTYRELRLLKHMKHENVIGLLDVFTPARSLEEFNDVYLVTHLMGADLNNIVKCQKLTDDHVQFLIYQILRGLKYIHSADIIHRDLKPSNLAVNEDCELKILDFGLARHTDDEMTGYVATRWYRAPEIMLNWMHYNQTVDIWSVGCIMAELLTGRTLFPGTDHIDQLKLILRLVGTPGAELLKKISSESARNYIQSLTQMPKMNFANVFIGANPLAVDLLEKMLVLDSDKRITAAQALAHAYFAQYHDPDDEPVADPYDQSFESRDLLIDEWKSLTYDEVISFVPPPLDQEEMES
UniProt Q8IZP0: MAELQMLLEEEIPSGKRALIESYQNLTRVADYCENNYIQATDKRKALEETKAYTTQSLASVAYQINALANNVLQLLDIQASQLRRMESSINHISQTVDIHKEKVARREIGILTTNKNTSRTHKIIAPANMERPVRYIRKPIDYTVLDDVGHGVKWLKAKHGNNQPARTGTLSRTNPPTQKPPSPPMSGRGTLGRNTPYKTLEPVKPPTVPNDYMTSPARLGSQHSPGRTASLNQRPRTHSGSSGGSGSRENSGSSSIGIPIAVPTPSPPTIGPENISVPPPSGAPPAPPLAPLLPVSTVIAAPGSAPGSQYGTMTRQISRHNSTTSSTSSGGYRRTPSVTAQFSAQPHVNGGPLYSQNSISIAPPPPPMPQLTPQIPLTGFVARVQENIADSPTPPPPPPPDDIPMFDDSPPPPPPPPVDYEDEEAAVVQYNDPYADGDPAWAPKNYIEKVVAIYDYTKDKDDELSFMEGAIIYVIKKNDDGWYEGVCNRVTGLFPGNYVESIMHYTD
UniProt P00519: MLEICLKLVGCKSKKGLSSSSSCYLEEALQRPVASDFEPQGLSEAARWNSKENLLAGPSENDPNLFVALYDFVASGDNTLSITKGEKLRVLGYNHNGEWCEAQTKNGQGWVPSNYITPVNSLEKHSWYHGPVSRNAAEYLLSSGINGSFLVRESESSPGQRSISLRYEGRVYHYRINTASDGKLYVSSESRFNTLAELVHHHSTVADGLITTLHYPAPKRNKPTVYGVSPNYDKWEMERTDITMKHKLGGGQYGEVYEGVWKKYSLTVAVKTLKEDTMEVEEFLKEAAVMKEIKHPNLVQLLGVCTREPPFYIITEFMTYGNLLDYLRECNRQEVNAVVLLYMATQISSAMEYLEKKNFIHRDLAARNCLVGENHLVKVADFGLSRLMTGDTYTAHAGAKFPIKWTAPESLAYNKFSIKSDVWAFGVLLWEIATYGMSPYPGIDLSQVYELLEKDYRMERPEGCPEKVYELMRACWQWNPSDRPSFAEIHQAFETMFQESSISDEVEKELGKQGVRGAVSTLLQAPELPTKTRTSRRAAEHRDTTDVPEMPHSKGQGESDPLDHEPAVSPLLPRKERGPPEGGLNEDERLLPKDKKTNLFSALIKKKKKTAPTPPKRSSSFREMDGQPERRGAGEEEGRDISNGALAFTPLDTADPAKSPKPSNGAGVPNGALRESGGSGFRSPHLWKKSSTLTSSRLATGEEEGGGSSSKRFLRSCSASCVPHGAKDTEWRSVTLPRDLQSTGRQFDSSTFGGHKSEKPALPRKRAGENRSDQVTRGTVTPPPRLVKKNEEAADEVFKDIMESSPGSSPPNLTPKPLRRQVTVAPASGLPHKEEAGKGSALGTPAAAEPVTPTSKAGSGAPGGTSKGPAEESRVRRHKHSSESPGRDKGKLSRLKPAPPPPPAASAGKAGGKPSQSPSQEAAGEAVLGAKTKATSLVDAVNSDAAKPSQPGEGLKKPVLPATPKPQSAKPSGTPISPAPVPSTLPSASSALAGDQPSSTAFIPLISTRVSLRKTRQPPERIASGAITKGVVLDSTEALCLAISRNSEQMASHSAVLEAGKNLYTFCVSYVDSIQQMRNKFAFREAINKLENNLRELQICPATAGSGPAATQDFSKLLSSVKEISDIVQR
GST-Abl-SH3: residues 61-121 of P00519
UniProt P46109: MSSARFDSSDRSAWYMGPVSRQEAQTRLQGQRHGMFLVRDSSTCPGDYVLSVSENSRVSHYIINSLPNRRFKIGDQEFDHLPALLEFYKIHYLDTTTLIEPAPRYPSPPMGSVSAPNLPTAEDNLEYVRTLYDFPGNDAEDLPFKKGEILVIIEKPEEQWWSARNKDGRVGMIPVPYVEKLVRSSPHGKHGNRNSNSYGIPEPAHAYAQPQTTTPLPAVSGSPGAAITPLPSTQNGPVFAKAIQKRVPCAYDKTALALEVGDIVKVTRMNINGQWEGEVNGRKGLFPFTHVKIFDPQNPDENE
UniProt Q05397: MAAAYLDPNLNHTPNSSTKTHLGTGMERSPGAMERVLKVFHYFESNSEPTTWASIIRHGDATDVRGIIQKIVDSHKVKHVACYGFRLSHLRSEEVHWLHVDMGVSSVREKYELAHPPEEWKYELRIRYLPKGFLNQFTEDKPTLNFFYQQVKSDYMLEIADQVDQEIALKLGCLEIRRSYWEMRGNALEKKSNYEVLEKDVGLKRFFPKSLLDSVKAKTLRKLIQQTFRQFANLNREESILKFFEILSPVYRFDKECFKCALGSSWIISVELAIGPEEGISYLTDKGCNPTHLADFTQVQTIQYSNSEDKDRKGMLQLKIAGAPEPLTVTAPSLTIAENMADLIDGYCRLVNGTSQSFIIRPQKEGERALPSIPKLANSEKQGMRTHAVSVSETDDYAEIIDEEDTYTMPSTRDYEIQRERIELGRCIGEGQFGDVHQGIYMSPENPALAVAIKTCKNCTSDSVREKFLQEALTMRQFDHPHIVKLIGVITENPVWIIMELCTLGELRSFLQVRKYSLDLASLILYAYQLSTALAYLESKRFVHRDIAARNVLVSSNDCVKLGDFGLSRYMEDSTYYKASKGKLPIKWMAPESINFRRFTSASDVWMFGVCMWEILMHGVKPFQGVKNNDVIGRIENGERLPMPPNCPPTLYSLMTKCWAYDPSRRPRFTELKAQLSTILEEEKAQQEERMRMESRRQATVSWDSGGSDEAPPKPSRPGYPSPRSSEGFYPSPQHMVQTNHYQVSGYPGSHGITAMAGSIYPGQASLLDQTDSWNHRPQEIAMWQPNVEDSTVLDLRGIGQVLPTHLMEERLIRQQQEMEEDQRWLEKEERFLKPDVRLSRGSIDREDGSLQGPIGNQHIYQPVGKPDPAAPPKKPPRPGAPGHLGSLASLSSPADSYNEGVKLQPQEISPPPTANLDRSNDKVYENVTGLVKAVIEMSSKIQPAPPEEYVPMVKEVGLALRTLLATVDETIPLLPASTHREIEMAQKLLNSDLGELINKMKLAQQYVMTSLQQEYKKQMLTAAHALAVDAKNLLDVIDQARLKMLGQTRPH
UniProt P49023: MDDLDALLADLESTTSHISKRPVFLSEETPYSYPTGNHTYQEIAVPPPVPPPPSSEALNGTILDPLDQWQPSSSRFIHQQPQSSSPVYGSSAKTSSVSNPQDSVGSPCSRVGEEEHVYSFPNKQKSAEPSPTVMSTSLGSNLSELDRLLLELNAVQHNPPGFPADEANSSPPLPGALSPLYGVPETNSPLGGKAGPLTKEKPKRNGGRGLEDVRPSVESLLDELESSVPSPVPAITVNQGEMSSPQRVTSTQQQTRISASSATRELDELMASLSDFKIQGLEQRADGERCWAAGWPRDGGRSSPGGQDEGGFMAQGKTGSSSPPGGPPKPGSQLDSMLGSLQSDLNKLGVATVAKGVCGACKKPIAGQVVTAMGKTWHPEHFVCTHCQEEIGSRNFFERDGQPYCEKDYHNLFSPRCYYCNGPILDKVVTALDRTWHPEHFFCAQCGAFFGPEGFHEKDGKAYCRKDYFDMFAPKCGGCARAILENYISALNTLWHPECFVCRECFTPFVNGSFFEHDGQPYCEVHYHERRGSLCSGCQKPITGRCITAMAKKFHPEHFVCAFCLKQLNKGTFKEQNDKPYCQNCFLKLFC

Tests used:
[1] = molecular target: p38α MAPK (human (endogenous in K562)) (UniProt Q16539); assay: co-IP; endogenous proteins immunoprecipitated from precleared K562 whole cell lysates (GammaBind G Sepharose), immunoblot; in Figures 5A and 6E cells cultured on 10 ug/ml fibronectin for 24 h; in Figure 6E shC3G or shCT clones
[2] = molecular target: Abi1 (human (endogenous in K562)) (UniProt Q8IZP0); assay: as above
GST-Abl-SH3 = GST-Abl-SH3 (UniProt P00519); assay: pull-down; 12 ug GST-fusion protein on glutathione-sepharose 4 fast flow beads with 1 mg K562 protein extract in lysis buffer, 2 h at 4 °C, 3 washes, immunoblot; also lysates of shAbi1-2, shCbl-1, shp130Cas-5 and shControl K562 clones; only the target purified
[3] = molecular target: CrkL (human (endogenous in K562)) (UniProt P46109); assay: co-IP; endogenous proteins immunoprecipitated from precleared K562 whole cell lysates (GammaBind G Sepharose), immunoblot; in Figures 5A and 6E cells cultured on 10 ug/ml fibronectin for 24 h; in Figure 6E shC3G or shCT clones

binding [1]: binds
Substance: CrkL (from UniProt P46109 1-303)

binding [2]: binds
Substance: c-Abl (from UniProt P00519 1-1130)

binding [3]: binds
binding [1]: binds
Substance: FAK (from UniProt Q05397 1-1052)

Further lines, the substance ahead of its results:

Substance: Abi1 (from UniProt Q8IZP0 1-508)
binding (GST-Abl-SH3): binds

Substance: paxillin (from UniProt P49023 1-591)
binding [3]: binds
binding [1]: binds
